# Experimental data taken from PubChem BioAssay (EPA / NIEHS).
# Amino acid sequences for entries named in this document (tags omitted).
# UniProt P04637, whole entry, looked up: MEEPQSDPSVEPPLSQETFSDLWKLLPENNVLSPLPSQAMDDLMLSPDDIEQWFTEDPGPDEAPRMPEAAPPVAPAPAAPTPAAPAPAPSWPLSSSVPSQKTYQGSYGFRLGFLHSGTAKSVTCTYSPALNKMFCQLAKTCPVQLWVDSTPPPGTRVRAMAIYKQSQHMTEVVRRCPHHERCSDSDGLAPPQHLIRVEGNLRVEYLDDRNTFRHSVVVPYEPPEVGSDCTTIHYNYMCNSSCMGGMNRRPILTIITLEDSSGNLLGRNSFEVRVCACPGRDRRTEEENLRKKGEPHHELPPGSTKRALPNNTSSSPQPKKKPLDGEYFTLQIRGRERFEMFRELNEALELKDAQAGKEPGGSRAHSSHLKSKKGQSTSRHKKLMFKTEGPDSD
# Several values for one entry are separate records, joined by “and”; a condition that tells them apart may be missing. Equal values may be shown once. The shares of active, inactive and inconclusive entries below differ from those in the screen. Potencies of inconclusive entries are doubtful fits and often do not repeat. A structure can be active in one record and inactive in another. Activity calls are given as the source filed them. Rule for the calls: active = hit-call score of the fitted dose curve at least 0.9, where 1 is the maximum; inconclusive = response in the unintended direction; inactive = score below 0.9.
# Tested on: not listed separately
# Test: TOX21_p53_BLA_p4_viability: Viability Assessment in the Tox21 HCT-116 p53 Agonism Beta-lactamase Assay, Phase 4 (AID 2283597);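 note: hits lower the luminescence signal meaning cytotoxicity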
# Method in brief: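 Cytotoxicity was inferred from loss of CellTiter-Glo luminescence. HCT116 cells had been dosed with compounds after 5 h plating, incubated 16 h at 37C and 5% CO2, and exposed to the CCF4-AM substrate for 2 h.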
Compound,AC50,outcome
COc1ccc(C)cc1N,inconclusive: 46.1 µM,inactive
COC(=O)OC,inconclusive: 46 µM,inactive
CO[Si](CCCOCC1CO1)(OC)OC (stereo unspecified),inconclusive: 46.1 µM,inactive
CCCCCC(C)=O,inconclusive: 46.1 µM,inactive
COc1cc(/C=C/C(=O)CC(=O)/C=C/c2ccc(O)c(OC)c2)ccc1O,active: 88.4 µM and active: 23 µM,inactive
COC(C)(C)CCCC(C)CC=O (stereo unspecified),inconclusive: 75 µM,
C=C1CC[C@H](O)C/C1=C/C=C1\CCC[C@]2(C)[C@@H]([C@H](C)/C=C/[C@H](C)C(C)C)CC[C@@H]12,active: 45.8 µM,inactive
Cc1c(OCC(F)(F)F)ccnc1CS(=O)c1nc2ccccc2[nH]1 (stereo unspecified),inconclusive: 0.474 µM,inactive
C[C@H](CCC(=O)O)[C@H]1CC[C@H]2[C@@H]3CC[C@@H]4C[C@H](O)CC[C@]4(C)[C@H]3CC[C@]12C,active: 13.5 µM,inactive
CC(=O)O[C@]1(C(C)=O)CC[C@H]2[C@@H]3C[C@H](C)C4=CC(=O)CC[C@]4(C)[C@H]3CC[C@@]21C,inconclusive: 23 µM,inactive
CC(=O)[C@H]1CC[C@H]2[C@@H]3CC=C4C[C@@H](O)CC[C@]4(C)[C@H]3CC[C@]12C,inconclusive: 23 µM,inactive
O=C1CCC(N2C(=O)c3ccccc3C2=O)C(=O)N1 (stereo unspecified),inconclusive: 13.5 µM,inactive
Cc1cc2nc3c(=O)[nH]c(=O)nc-3n(C[C@H](O)[C@H](O)[C@H](O)CO)c2cc1C,inconclusive: 1.03e-05 µM,inactive
CC(=O)c1c(C)c([N+](=O)[O-])c(C(C)(C)C)c([N+](=O)[O-])c1C,,inactive
Brc1ccc(Oc2ccc(Br)cc2)cc1,inconclusive: 46.1 µM,inactive
CC1=CC(=O)c2ccccc2C1=O,active: 72.7 µM,inactive
NCCNCCN,inconclusive: 46.1 µM and inconclusive: 23 µM,inactive
Nc1nc(Cl)nc2c1ncn2[C@H]1C[C@H](O)[C@@H](CO)O1,inconclusive: 45.8 µM,inactive
CC(=O)OC/C=C(C)/C=C/C=C(C)/C=C/C1=C(C)CCCC1(C)C,inconclusive: 45.2 µM,inactive
CC(C)(C)NC(=O)[C@H]1CC[C@H]2[C@@H]3CC[C@H]4NC(=O)C=C[C@]4(C)[C@H]3CC[C@]12C,inconclusive: 45.7 µM,inactive

# Three of the compounds above, tab-delimited.
Compound	AC50	outcome
COc1cc(/C=C/C(=O)CC(=O)/C=C/c2ccc(O)c(OC)c2)ccc1O	active: 88.4 µM and active: 23 µM	inactive
CC(=O)[C@H]1CC[C@H]2[C@@H]3CC=C4C[C@@H](O)CC[C@]4(C)[C@H]3CC[C@]12C	inconclusive: 23 µM	inactive
CC(=O)OC/C=C(C)/C=C/C=C(C)/C=C/C1=C(C)CCCC1(C)C	inconclusive: 45.2 µM	inactive

# Additional records

Compound,AC50,outcome
CO[C@H]1/C=C/O[C@@]2(C)Oc3c(C)c(O)c4c(O)c(c(/C=N/N5CCN(C)CC5)c(O)c4c3C2=O)NC(=O)/C(C)=C\C=C\[C@H](C)[C@H](O)[C@@H](C)[C@@H](O)[C@@H](C)[C@H](OC(C)=O)[C@@H]1C,inconclusive: 46.3 µM and inconclusive: 23 µM,inactive
Cc1cc(=O)[nH]c(C(C)C)n1,inconclusive: 12 µM,inactive
CN(C)CCCN1c2ccccc2CCc2ccc(Cl)cc21,active: 73.9 µM,inactive
CC=CC(=O)N(CC)c1ccccc1C,inconclusive: 10.3 µM,inactive
CC(=O)OCCC(C)C,inconclusive: 46.1 µM,inactive
COc1ccccc1O,inconclusive: 0.485 µM,inactive
CCCCNC(N)=O,inconclusive: 45.6 µM,inactive
CSc1ccc(Cl)cc1,inconclusive: 45.8 µM,inactive
CC(C)Oc1ccccc1O,,inactive
c1coc(CNc2ncnc3nc[nH]c23)c1,,inactive
CC(=O)C(=O)O,inconclusive: 46.1 µM,inactive
CCc1cc(C(C)(C)C)c(O)c(C(C)(C)C)c1,inconclusive: 6 µM,inactive
Cc1cccc(Nc2cc(Cl)nc(SCC(=O)O)n2)c1C,inconclusive: 35.5 µM and inconclusive: 4.57 µM,inactive
C[C@]12CC[C@H]3[C@@H](CCC4=CC(=O)CC[C@@]43C)[C@@H]1CC[C@@H]2C(=O)CO,inconclusive: 10.3 µM,inactive
CCc1ccc(O)cc1,inconclusive: 84 µM,inactive
C=C(C)C(=O)OCCCCCCCCCCCC,inconclusive: 0.412 µM,inactive
CCCCC/C=C/C=C/C=O,active: 75 µM,inactive
CCCCCCC(=O)O,inconclusive: 45.4 µM,inactive
CC1(C)CCC[C@]2(C)[C@H]3CC(=O)O[C@]3(C)CC[C@@H]12,,inactive

# Biological target: Cellular tumor antigen p53 (Homo sapiens) (UniProt P04637)
# Test: TOX21_p53_BLA_p5_ratio: Tox21 HCT-116 p53 Agonism Beta-lactamase Assay, Ratio, Phase 5 (AID 2283599)
# Method in brief: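 Beta-lactamase reporter ratio (blue 460 nm over green 530 nm, 405 nm excitation) after 2 h CCF4-AM loading, in HCT-116 cells exposed 16 h at 37 C to compounds pinned at 217-fold dilution. Increases relative to DMSO baseline scored.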
Compound,outcome,AC50
COc1ccc(C)cc1N,inactive,
CO[Si](CCCOCC1CO1)(OC)OC (stereo unspecified),,inconclusive: 46.1 µM
COc1cc(/C=C/C(=O)CC(=O)/C=C/c2ccc(O)c(OC)c2)ccc1O,,active: 14 µM and active: 39.4 µM and active: 7.67 µM
C=C1CC[C@H](O)C/C1=C/C=C1\CCC[C@]2(C)[C@@H]([C@H](C)/C=C/[C@H](C)C(C)C)CC[C@@H]12,,active: 70.5 µM
O=C1CCC(N2C(=O)c3ccccc3C2=O)C(=O)N1 (stereo unspecified),,inconclusive: 46.1 µM and inconclusive: 23 µM
Brc1ccc(Oc2ccc(Br)cc2)cc1,inactive,
CC1=CC(=O)c2ccccc2C1=O,,active: 40.7 µM
NCCNCCN,,inconclusive: 46.2 µM
Nc1nc(Cl)nc2c1ncn2[C@H]1C[C@H](O)[C@@H](CO)O1,,active: 455 nM and active: 793 nM
CC(=O)OC/C=C(C)/C=C/C=C(C)/C=C/C1=C(C)CCCC1(C)C,,inconclusive: 23 µM
CC(C)(C)NC(=O)[C@H]1CC[C@H]2[C@@H]3CC[C@H]4NC(=O)C=C[C@]4(C)[C@H]3CC[C@]12C,,inconclusive: 4.49 µM and inconclusive: 30.3 µM and inconclusive: 7.03 µM
CO[C@H]1/C=C/O[C@@]2(C)Oc3c(C)c(O)c4c(O)c(c(/C=N/N5CCN(C)CC5)c(O)c4c3C2=O)NC(=O)/C(C)=C\C=C\[C@H](C)[C@H](O)[C@@H](C)[C@@H](O)[C@@H](C)[C@H](OC(C)=O)[C@@H]1C,,inconclusive: 47.7 µM and inconclusive: 17.8 µM
CN(C)CCCN1c2ccccc2CCc2ccc(Cl)cc21,,active: 86.8 µM
COc1ccccc1O,,inconclusive: 46.6 µM
CSc1ccc(Cl)cc1,inactive,inconclusive: 73.2 µM
CC(=O)C(=O)O,,inconclusive: 46.1 µM
Cc1cccc(Nc2cc(Cl)nc(SCC(=O)O)n2)c1C,,inconclusive: 11 µM and inconclusive: 23 µM
C[C@]12CC[C@H]3[C@@H](CCC4=CC(=O)CC[C@@]43C)[C@@H]1CC[C@@H]2C(=O)CO,inactive,
CCc1ccc(O)cc1,,inconclusive: 46.5 µM
CCCCC/C=C/C=C/C=O,inactive,inconclusive: 45.8 µM
CCCCCCC(=O)O,,inconclusive: 46.1 µM and inconclusive: 45.4 µM
